Paper PMC5891007, “The crystal structure of XdpB, the bacterial old yellow enzyme, in an FMN-free form” (PLoS ONE, 2018)

Tested on: XdpR (TetR-like transcriptional regulator), N-terminal His (Agrobacterium bohemicum R89-1)
Test: EMSA
Conditions: XdpR concentrated to 0.5 mg/ml, preincubated with 20 uM DNA 1 h at room temperature; 7% blue native PAGE, ethidium bromide stain; protein purified as XdpB; recombinant protein; protein details: N-terminal His (pET28b)

Row | Sequence | binding result
1 | CAATCATGATGATCGTCATGAATATA (double strand) [xdo operon operator probe, 26 bp] | binds
2 | CAATTATGATGATCGTTATGAATATA (double strand) [mutated operator probe, 26 bp (negative control)] | binds more weakly

The exact form of at least one protein or probe is not confirmed. Weaker means in comparison with the reference protein, sequence or condition of that experiment.
